Earlier results, collected in patent publication US11787819B2, “Crystalline salt of a multi-tyrosine kinase inhibitor, method of preparation, and use thereof” (Mirati Therapeutics, Inc., priority 2021, dated 2023).
For at least one compound, name, drawing or mass did not settle the structure.

Tested on: human xenograft tumor models
Conditions: multiple human xenograft tumor models in mice; cited from earlier work

## COCCNCc1ccc(-c2cc3nccc(Oc4ccc(NC(=O)C5(C(=O)Nc6ccc(F)cc6)CC5)cc4F)c3s2)nc1 [Compound 1, N-(3-fluoro-4-((2-(5-(((2-methoxyethyl)amino)methyl)pyridin-2-yl)thieno[3,2-b]pyridin-7-yl)oxy)phenyl)-N′-(4-fluorophenyl)cyclopropane-1,1-dicarboxamide]
  Effect on tumors (in words): tumor regression
